Results from US20170096701.

Experiments:
T5 exonuclease = biological target: T1, T5 exonuclease (UniProt P06229); experiment: enzyme reaction in vitro; conditions: dabcyl-dT at position 29, fluorescein-dT at position 55 [29 dabcyl-dT, 55 fluorescein-dT], purified recombinant protein, protein details: NEB, label: fluorescein/dabcyl
T1 sequence (looked up, limits assumed): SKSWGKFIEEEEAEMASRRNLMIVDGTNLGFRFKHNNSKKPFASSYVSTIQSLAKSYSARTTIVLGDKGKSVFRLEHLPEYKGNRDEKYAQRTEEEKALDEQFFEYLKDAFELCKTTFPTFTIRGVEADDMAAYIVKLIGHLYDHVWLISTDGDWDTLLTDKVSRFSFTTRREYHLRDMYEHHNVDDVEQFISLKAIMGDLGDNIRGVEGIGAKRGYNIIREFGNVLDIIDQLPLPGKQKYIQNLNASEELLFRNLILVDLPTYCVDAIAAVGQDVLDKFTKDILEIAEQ

[1] = biological target: T2, DNA topoisomerase I (Escherichia coli) (UniProt P06612); experiment: binding assay; conditions: dabcyl-dT at position 29, fluorescein-dT at position 55 [29 dabcyl-dT; 55 fluorescein-dT]; rapid relaxation by large amounts of enzyme, FRET kinetics; purified recombinant protein; protein details: purified as described previously; label: fluorescein/dabcyl; letters built from the parent sequence and the stated change
T2 sequence (looked up, limits assumed): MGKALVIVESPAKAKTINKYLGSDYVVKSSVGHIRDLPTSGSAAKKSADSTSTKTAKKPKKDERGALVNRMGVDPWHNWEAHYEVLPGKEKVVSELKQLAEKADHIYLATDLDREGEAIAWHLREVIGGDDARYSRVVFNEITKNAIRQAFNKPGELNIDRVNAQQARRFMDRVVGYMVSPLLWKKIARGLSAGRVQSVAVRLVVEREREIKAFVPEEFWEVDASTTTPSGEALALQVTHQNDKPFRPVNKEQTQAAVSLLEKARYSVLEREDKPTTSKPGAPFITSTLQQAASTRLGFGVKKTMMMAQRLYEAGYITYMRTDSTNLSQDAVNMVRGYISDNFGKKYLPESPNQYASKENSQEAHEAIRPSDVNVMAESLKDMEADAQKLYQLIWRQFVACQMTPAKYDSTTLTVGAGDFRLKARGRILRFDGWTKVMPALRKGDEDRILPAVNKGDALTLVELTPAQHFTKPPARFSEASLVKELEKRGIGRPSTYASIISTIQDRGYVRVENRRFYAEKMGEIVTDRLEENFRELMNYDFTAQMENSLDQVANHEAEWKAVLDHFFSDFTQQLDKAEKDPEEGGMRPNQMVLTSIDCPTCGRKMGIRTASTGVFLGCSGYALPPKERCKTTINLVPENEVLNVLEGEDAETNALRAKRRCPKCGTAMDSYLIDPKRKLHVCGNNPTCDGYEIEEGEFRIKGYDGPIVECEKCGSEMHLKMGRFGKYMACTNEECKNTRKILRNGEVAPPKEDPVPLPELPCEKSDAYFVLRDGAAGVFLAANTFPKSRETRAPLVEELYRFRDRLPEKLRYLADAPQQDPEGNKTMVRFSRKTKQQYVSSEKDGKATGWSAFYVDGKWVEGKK

[2] = test system: Nt.BbvCI nicking endonuclease; experiment: enzyme reaction in vitro; conditions: dabcyl-dT at position 29, fluorescein-dT at position 55 [29 dabcyl-dT; 55 fluorescein-dT]; nicking half-life of supercoiled plasmid followed by FRET; purified recombinant protein; protein details: New England Biolabs; label: fluorescein/dabcyl; letters built from the parent sequence and the stated change
[3] = test system: DNA gyrase (Escherichia coli); experiment: binding assay; conditions: dabcyl-dT at position 29, fluorescein-dT at position 55 [29 dabcyl-dT; 55 fluorescein-dT]; ATP-dependent supercoiling, relatively slow; 4 mM MgCl2, 1.75 mM ATP, 37 C; inhibited by novobiocin (IC50 0.48 uM) and ciprofloxacin (IC50 […]); purified recombinant protein; protein details: New England Biolabs; label: fluorescein/dabcyl; letters built from the parent sequence and the stated change

With “TCAGCCCGACAGCACGAGACGATATATATATATATATATATATATATATATATATATATATATGGGCCAACCAACCAGCCCC [FL905 oligomer]” the “activity on this sequence” value (T5 exonuclease; digests single-stranded FL905, single-stranded DNA, letters built from the parent sequence and the stated …) was “active”.
In the case of “TCAGCCCGACAGCACGAGACGATATATATATATATATATATATATATATATATATATATATATGGGCCAACCAACCAGCCCC [supercoiled pAB1_FL905]”, the binding result [1] was “binds”, the activity on this sequence [2] was 15 s and the “activity on this sequence” value (T5 exonuclease; does not degrade supercoiled plasmid, letters built from the parent sequence and the stated change) was “not active”.
With “TCAGCCCGACAGCACGAGACGATATATATATATATATATATATATATATATATATATATATATGGGCCAACCAACCAGCCCC [relaxed pAB1_FL905]” the binding result [3] was “binds” and the “activity on this sequence” value (T5 exonuclease; does not degrade relaxed plasmid, letters built from the parent sequence and the stated change) was “not active”.

For part of these data: No signal at the amounts used counts as a negative. For part of these data: Where a protein sequence is shown, tags need not be part of it. For part of these data: For at least one entry, the source does not settle the construct or the ends of the probe.
